Experiments:
Assay type in all cases: cell-based
Jurkat cells = test: Cell viability MTS assay, Jurkat; conditions: Homo sapiens, 72 h, read-out: IC50 antiproliferative, Jurkat
Method: (§1) MTS assay was used to measure the cell viability. For single treatment, Jurkat, THP-1 and HEL (8000 cells/well), HCT116 and A549 (2000 cells/well) were seeded in 96-well plates in 100 μL complete medium. After overnight incubation, 50 μL of media containing various concentrations of compounds or the vehicle were added to each well. For cotreatment, cells were seeded in 96-well plates in 50 μL complete medium. After overnight incubation, 50 μL of Z-VAD-FMK, Nec-1, Fer-1, CQ, and other indicated compounds were added to each well. One hour later, 50 μL of media containing various concentrations of compounds were added to each well. After 72 h of treatment, 20 μL of CellTiter 96 AQueous One Solution reagent (Promega, Madison, USA) was added to each well according to manufacturer’s protocol. Plates were incubated at 37 °C for 1–2 h. The absorbance was determined at a wavelength of 490 nm using a Synergy H1 plate reader (Biotek, Winooski, VT, USA).

THP-1 cells = test: Cell viability MTS assay, THP-1; conditions: Homo sapiens, 72 h, read-out: IC50 antiproliferative, THP-1
Method: as §1

HCT116 cells = test: Cell viability MTS assay, HCT116; conditions: Homo sapiens, HCT-116, 72 h, read-out: IC50 antiproliferative, HCT116
Method: as §1

A549 cells = test: Cell viability MTS assay, A549; conditions: Homo sapiens, 72 h, read-out: IC50 antiproliferative, A549
Method: as §1

HEL cells = test: Cell viability MTS assay, HEL; conditions: Homo sapiens, 72 h, read-out: IC50 antiproliferative, HEL
Method: as §1

In the case of `O=C(CCCCCCC(=O)Nc1ccccc1)NO` [SAHA], the IC50 (Jurkat cells) is reported as 380 ± 50 nM, the IC50 (THP-1 cells) is reported as 620 ± 50 nM and the IC50 (HCT116 cells) is reported as 720 ± 50 nM. The IC50 (A549 cells) was 3500 ± 300 nM and the IC50 (HEL cells) was 720 nM.

From PMC11345830, “Exploration of Hydrazide-Based HDAC8 PROTACs for the Treatment of Hematological Malignancies and Solid Tumors” (Journal of Medicinal Chemistry, 2024)
